A short description of the data set: general procedure: Fmoc solid-phase peptide synthesis; Fmoc-AA-Wang resin (Wang is a 2-chlorotrityl-Resin); PyBOP, DIPEA. Particulars: conjugation step.

Some peptides are written in HELM: one residue between dots, names in brackets for other building blocks, links after the first $.

For “PEPTIDE1{[Pte].[D-gGlu].[dD].[dR].[dD].[Asp_open].[dC]}|CHEM1{[DAVLBH_CO2EtS]}$PEPTIDE1,CHEM1,7:R3-1:R1$$$V2.0”, the “final HPLC purity” value (HPLC) came to 98% pure.
In turn, “PEPTIDE1{[Pte].[gGlu].D.R.D.D.C}|CHEM1{[DAVLBH_CO2EtS]}$PEPTIDE1,CHEM1,7:R3-1:R1$$$V2.0” returned a conjugation yield of 70% yield.

(Values after US20080280937A1 (priority 2005, published 2008).)
